# In publication PMC3893878:
# No constants are given. Whether binding was seen depends on the method and setting. Binding seen in cells or lysates may run through a third protein. Some binding calls cover weakened binding; strength is not graded here.
# T1: NADPH oxidase isoform 4 (Nox4), nuclear (human (endogenous in AFSC)) (UniProt Q9NPH5)
# T1 sequence: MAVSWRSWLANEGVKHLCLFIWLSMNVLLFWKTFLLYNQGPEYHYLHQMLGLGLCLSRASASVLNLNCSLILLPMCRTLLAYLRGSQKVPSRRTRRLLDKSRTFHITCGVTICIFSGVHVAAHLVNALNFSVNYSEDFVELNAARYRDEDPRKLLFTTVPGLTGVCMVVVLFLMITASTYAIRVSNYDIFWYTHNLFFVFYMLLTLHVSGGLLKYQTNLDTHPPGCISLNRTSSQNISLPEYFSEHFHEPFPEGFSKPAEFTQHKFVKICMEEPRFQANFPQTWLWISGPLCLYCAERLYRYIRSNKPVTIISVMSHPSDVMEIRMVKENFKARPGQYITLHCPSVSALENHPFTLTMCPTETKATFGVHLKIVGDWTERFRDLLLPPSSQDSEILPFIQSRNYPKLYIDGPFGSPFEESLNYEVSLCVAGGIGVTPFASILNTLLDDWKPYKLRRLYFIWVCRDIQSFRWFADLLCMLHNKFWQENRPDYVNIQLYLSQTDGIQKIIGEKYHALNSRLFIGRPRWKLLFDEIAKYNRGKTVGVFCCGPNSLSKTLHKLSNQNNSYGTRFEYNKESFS
# Target: T1, NADPH oxidase isoform 4 (Nox4), nuclear (human (endogenous in AFSC))
# Experiment: co-IP; nuclear lysates of human AFSC precipitated overnight with anti-Nox4 (Novus), protein A/G agarose; washes with 1% Nonidet P-40, 150 mM NaCl, pH 7.0; Western blot; cells untreated or treated with 2 uM plumbagin
binder,measurement,value
"p22phox (protein, UniProt P13498 1-195) MGQIEWAMWANEQALASGLILITGGIVATAGRFTQWYFGAYSIVAGVFVCLLEYPRGKRKKGSTMERWGQKYMTAVVKLFGPFTRNYYVRAVLHLLLSVPAGFLLATILGTACLAIASGIYLLAAVRGEQWTPIEPKPRERPQIGGTIKQPPSNPPPRPPAEARKKPSEEEAAVAAGGPPGGPQVNPIPVTDEVV",binding,binds
"Matrin 3 (protein, UniProt P43243 1-847) MSKSFQQSSLSRDSQGHGRDLSAAGIGLLAAATQSLSMPASLGRMNQGTARLASLMNLGMSSSLNQQGAHSALSSASTSSHNLQSIFNIGSRGPLPLSSQHRGDADQASNILASFGLSARDLDELSRYPEDKITPENLPQILLQLKRRRTEEGPTLSYGRDGRSATREPPYRVPRDDWEEKRHFRRDSFDDRGPSLNPVLDYDHGSRSQESGYYDRMDYEDDRLRDGERCRDDSFFGETSHNYHKFDSEYERMGRGPGPLQERSLFEKKRGAPPSSNIEDFHGLLPKGYPHLCSICDLPVHSNKEWSQHINGASHSRRCQLLLEIYPEWNPDNDTGHTMGDPFMLQQSTNPAPGILGPPPPSFHLGGPAVGPRGNLGAGNGNLQGPRHMQKGRVETSRVVHIMDFQRGKNLRYQLLQLVEPFGVISNHLILNKINEAFIEMATTEDAQAAVDYYTTTPALVFGKPVRVHLSQKYKRIKKPEGKPDQKFDQKQELGRVIHLSNLPHSGYSDSAVLKLAEPYGKIKNYILMRMKSQAFIEMETREDAMAMVDHCLKKALWFQGRCVKVDLSEKYKKLVLRIPNRGIDLLKKDKSRKRSYSPDGKESPSDKKSKTDGSQKTESSTEGKEQEEKSGEDGEKDTKDDQTEQEPNMLLESEDELLVDEEEAAALLESGSSVGDETDLANLGDVASDGKKEPSDKAVKKDGSASAAAKKKLKKVDKIEELDQENEAALENGIKNEENTEPGAESSENADDPNKDTSENADGQSDENKDDYTIPDEYRIGPYQPNVPVGIDYVIPKTGFYCKLCSLFYTNEEVAKNTHCSSLPHYQKLKKFLNKLAEERRQKKET",binding,binds
